# From article PMC6937817
# Sequences of proteins named here, by UniProt entry; tags and fusion partners are left off. A change or cut given only in a name is not applied to a line headed by its entry.
# UniProt O43184: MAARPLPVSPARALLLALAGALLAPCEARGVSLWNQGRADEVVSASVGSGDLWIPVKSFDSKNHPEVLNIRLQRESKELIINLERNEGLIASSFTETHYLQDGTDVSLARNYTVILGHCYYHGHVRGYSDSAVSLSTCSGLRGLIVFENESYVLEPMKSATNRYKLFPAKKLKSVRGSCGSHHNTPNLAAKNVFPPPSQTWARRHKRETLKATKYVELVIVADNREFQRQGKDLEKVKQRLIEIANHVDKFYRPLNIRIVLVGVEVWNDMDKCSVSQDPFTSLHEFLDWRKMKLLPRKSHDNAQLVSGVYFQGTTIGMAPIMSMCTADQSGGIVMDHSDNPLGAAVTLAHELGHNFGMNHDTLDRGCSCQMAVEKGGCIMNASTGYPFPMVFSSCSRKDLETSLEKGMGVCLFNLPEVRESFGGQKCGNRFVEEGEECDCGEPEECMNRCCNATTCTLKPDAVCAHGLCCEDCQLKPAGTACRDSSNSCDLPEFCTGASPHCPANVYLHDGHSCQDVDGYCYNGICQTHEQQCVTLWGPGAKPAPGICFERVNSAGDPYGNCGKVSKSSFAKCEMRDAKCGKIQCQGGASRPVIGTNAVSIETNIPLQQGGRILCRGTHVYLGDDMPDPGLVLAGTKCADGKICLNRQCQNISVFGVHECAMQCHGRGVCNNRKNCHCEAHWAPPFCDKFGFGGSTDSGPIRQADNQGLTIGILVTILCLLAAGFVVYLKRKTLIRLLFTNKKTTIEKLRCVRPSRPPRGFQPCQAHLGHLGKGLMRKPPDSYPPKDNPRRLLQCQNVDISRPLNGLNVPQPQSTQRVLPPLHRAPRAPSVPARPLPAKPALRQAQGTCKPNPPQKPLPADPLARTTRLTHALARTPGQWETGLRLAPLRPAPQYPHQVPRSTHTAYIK
# UniProt Q13444: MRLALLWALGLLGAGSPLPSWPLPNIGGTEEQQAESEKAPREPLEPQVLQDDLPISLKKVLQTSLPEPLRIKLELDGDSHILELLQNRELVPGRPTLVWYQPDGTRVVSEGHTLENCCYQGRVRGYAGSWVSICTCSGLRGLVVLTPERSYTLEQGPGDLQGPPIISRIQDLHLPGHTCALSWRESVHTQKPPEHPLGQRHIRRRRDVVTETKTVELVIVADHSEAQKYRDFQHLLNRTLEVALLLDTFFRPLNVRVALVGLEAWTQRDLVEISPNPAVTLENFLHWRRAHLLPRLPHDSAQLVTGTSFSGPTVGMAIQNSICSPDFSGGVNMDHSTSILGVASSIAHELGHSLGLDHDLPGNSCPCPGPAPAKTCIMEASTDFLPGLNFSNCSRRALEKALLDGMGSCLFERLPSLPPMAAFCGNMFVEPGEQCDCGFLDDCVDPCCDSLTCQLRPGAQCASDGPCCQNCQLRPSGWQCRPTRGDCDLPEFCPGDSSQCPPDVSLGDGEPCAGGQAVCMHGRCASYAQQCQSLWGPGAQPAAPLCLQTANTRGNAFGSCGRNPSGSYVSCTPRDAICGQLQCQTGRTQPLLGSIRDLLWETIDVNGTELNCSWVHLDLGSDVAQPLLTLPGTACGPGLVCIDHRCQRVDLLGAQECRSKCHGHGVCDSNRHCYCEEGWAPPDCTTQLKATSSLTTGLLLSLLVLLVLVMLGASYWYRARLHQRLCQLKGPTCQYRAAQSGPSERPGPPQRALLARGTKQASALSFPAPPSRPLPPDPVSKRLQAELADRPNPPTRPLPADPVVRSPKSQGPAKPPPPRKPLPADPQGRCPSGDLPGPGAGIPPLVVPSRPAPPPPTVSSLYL
# Molecular target: T1, Aspartate β-hydroxylase (UniProt Q12797)
# T1 sequence: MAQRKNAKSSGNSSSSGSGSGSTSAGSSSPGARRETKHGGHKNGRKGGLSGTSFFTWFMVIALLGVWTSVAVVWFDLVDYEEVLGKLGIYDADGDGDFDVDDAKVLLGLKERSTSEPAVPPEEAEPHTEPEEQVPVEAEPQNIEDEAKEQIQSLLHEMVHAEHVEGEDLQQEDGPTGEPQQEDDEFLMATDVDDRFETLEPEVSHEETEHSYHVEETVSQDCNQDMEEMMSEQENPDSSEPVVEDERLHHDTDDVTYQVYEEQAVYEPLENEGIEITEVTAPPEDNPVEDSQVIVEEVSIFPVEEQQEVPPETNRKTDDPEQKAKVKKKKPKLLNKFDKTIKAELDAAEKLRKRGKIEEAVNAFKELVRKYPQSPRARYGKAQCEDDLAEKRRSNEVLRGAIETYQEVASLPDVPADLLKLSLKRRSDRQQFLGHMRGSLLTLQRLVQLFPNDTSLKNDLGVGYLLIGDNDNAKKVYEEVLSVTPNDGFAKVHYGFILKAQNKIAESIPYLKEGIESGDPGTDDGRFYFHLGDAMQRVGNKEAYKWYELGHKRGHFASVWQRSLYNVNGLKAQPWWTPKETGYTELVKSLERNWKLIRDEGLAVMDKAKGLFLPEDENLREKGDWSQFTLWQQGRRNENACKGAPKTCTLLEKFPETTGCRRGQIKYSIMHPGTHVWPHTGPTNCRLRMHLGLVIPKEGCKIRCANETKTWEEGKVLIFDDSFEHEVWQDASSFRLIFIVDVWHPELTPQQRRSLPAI
# Experiment: co-IP; HEK293 cells transfected with a total of 10 μg corresponding plasmids; harvested in PBS containing 1% NP40; detection by Western blot; which protein was precipitated is not told
row,Substance,binding
1,ADAM12 (from UniProt O43184),binds
2,ADAM15 (from UniProt Q13444),binds

# Results are given in words; binding and its absence hold for the method and conditions named. Binding seen in cells or lysates may run through a third protein. Binding can be weak; no strength is given.
